Data from US9222143.
Results are given in words; binding and its absence hold for the method and conditions named. Some results given as binding are weak or reduced against the parent protein; the word gives no strength.

Protein sequences, listed by entry. Tags and fused reporters are not part of them. Lines headed by an entry give the natural chain unless they say otherwise; changes in a name come on top.
UniProt P05555: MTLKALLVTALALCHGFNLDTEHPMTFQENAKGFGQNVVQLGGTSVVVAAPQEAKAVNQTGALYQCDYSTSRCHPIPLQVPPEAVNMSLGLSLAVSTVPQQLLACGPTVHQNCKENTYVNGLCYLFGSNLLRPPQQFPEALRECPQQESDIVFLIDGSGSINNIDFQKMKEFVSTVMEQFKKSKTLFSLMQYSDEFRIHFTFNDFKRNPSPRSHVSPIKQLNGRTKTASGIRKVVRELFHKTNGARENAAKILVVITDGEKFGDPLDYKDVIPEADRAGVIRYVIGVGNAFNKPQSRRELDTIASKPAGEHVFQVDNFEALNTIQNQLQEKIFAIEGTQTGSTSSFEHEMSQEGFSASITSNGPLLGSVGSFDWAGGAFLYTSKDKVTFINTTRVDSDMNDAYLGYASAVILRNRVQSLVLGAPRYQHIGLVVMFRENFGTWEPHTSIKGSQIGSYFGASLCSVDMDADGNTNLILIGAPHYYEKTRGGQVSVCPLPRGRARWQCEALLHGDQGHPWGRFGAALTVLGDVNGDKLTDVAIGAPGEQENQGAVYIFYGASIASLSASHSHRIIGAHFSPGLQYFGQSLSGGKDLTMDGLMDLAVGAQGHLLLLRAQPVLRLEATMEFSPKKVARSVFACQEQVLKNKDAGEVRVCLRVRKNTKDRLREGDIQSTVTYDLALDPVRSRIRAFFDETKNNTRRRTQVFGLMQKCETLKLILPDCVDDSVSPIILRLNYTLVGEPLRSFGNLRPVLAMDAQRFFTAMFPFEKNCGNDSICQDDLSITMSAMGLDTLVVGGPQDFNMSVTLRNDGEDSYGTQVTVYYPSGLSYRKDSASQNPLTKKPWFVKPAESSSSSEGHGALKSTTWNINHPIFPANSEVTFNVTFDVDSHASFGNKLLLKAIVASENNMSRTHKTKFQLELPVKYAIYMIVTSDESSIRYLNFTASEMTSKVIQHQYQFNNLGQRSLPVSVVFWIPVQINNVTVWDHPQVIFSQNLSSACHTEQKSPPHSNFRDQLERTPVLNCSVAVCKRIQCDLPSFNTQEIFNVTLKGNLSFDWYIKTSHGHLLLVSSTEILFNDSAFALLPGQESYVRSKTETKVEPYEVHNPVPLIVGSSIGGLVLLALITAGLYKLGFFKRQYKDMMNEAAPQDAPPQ

Target: CD11b/CD18 receptor on J774A.1 murine monocytes/macrophages (murine) (UniProt P05555)
Experiment: binding to CD11b/CD18-expressing J774A.1 cells (FIG. 2A)

CyaA/E570K+E581P (from UniProt J7QLC0 1-1706)
binding: binds
